Consider three substances from publication PMC6158920.

Chains of the proteins cited; added tags and fusions are not shown. Residues count along the entry.
UniProt Q05397: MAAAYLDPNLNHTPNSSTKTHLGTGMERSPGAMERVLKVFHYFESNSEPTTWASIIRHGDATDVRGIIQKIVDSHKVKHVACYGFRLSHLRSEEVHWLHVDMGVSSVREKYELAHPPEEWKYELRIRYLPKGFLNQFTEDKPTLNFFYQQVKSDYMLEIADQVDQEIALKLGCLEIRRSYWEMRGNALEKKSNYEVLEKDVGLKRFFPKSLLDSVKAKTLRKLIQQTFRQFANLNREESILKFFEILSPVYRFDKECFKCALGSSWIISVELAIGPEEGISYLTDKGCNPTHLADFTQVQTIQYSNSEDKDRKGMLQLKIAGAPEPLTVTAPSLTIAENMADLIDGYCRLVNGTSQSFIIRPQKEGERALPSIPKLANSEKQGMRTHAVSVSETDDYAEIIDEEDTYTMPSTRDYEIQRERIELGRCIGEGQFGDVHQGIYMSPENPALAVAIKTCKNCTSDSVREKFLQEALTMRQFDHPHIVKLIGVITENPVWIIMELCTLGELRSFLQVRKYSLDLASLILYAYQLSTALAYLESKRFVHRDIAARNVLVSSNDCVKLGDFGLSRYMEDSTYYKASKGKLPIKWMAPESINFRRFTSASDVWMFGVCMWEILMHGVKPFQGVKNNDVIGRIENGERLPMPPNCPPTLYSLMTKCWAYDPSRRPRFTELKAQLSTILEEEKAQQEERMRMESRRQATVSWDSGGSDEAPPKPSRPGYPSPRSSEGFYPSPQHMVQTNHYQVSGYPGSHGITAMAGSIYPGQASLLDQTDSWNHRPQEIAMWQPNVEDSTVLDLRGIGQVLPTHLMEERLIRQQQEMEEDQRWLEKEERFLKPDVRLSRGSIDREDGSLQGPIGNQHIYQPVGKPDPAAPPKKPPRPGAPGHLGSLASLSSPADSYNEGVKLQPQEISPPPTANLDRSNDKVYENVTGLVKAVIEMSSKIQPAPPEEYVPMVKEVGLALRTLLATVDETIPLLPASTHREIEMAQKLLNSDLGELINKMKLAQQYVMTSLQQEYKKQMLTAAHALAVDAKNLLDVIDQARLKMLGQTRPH
UniProt P05106, residues 27-788: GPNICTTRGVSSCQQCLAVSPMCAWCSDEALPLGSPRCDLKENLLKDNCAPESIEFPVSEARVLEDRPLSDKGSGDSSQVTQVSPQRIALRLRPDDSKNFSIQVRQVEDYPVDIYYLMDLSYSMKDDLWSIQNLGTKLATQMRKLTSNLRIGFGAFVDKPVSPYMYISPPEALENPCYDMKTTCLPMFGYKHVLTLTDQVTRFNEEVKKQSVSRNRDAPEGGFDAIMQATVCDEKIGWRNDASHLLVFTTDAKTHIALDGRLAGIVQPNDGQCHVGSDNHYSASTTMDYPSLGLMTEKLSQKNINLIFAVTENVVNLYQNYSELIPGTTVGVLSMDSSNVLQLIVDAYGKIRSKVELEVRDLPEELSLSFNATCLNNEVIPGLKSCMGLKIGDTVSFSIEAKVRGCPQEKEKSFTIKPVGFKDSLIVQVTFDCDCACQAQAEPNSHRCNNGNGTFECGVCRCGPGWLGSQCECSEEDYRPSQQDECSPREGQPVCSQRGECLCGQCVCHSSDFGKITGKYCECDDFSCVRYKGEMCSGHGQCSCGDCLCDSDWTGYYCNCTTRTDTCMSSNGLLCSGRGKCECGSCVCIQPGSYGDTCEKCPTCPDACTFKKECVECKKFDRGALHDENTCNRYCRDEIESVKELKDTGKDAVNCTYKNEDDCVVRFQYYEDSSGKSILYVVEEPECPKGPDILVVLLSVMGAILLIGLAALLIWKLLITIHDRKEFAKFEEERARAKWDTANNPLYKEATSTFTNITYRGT
UniProt P49023: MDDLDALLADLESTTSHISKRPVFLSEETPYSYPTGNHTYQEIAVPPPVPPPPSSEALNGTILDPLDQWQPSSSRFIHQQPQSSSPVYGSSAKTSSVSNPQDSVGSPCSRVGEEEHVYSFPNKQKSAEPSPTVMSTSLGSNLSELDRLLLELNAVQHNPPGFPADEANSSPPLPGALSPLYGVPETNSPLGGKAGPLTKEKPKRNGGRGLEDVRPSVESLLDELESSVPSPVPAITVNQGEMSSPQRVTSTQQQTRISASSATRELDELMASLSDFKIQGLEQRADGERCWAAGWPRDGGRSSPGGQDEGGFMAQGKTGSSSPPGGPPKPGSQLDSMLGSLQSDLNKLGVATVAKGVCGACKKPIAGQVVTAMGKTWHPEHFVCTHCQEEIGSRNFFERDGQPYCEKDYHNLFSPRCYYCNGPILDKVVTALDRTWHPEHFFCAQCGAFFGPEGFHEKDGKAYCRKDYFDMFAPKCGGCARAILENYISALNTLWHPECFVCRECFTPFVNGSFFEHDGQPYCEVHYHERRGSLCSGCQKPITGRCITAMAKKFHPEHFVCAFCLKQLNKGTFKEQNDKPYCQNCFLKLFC

No constants are given. Whether binding was seen depends on the method and setting. Binding seen in cells or lysates may run through a third protein. Tags and fused reporters may be left off the sequences shown.

Experiment [1] has as its target T1, flag-tagged IL-32γ (human) (UniProt P24001).
T1 sequence: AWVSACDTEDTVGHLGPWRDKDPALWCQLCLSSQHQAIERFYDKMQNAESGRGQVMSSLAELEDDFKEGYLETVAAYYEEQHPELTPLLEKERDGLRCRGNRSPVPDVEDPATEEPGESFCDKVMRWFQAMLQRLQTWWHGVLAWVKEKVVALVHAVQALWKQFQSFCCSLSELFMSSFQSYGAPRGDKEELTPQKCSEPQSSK
Kind of experiment: co-IP; MRC-5 cells overexpressing flag-tagged IL-32γ, stimulated with TGF-β and harvested at 24 h; lysate on protein G Sepharose beads coated with anti-flag antibody; immunoblot with anti-FAK antibody.

The target of experiment [2] is T2, His-tagged recombinant IL-32γ (human) (UniProt P24001).
T2 sequence: T1 sequence
Kind of experiment: pull-down; His-tagged IL-32γ on Ni-NTA agarose beads, incubated with the lysate supernatant of MRC-5 cells stimulated with TGF-β for 24 h; flow-through, wash and elution fractions immunoblotted; only the target purified.

With “focal adhesion kinase (from UniProt Q05397 1-1052) (enzyme)”, the binding entry in experiment [1] is on record as “no binding”.

For “integrin β3 (from UniProt P05106 27-788) (receptor)”, the binding result in experiment [2] is recorded as “no binding”.

Regarding paxillin (from UniProt P49023 1-591), in experiment [2], the binding entry was “no binding”.
